# Earlier results as cited in patent US20230165862A1, “CANCER THERAPY USING 3,5-DISUBSTITUTED BENZENE ALKYNYL COMPOUND AND MEK INHIBITOR” (TAIHO PHARMACEUTICAL CO., LTD., priority 2020, published 2023).
# Read-outs that look alike come from different tables or passages of the source.
# Details: human
structure (smiles),measurement,setting,value
"C=CC(=O)N1CC[C@H](n2nc(C#Cc3cc(OC)cc(OC)c3)c3c(N)ncnc32)C1 [Compound 1, (S)-1-(3-(4-amino-3-((3,5-dimethoxyphenyl)ethynyl)-1H-pyrazolo[3,4-d]pyrimidin-1-yl)pyrrolidin-1-yl)prop-2-en-1-one]","Time the blood concentration (4.2 ng/mL, corresponds to 10 nM) is maintained",QD dose (every day) of 8 mg or more,≥ 16 h
same,"Time the blood concentration (4.2 ng/mL, corresponds to 10 nM) is maintained",QOD dose (once every two days) of 24 mg or more,≥ 36 h
